Measurements reported in PubChem BioAssay AID2685 (National Center for Advancing Translational Sciences (NCATS), 2010).
The other results are listed elsewhere or left out. Shown are side measurements of this screen, not its main read-out; they come without a call. Compounds called inactive in the main read-out are mostly missing here. The note in brackets gives the kind of curve behind each potency; many fits are weak.

Experiment: qHTS Assay for Lipid Storage Modulators in Drosophila S3 Cells;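 for cell number change: cells counted by Cell Tracker Red CMTPX staining in the red channel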
Conditions: BODIPY lipid droplet fluorescence, 18-24 h; for cell number change: measured here: cell count max response, cells fed with added oleic acid
Outline: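 Drosophila S3 cells got compounds at several concentrations plus oleic acid (400 uM solution). Laser-scanning cytometry with 488 nm excitation read lipid droplets at 500-530 nm and cells at 575-640 nm. Percent activity was relative to 20 uM Triacsin C.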

[1] = measured here: cell number channel AC50, cells fed with added oleic acid
[2] = measured here: lipid fluorescence (Fed channel) AC50, cells fed with added oleic acid

| Compound | AC50 [1] | AC50 [2] | cell number change [%] |
| --- | --- | --- | --- |
| C1=C(c2ccccc2)CCN(c2nc3ccccc3n3cnnc23)C1 | 1.46 µM [rising, partial curve] | 1.46 µM [rising, full curve] |  |
| CC(Oc1ccc2ccc(=O)oc2c1)C(=O)NC1CCN(Cc2ccccc2)CC1 (centres undefined) |  | 0.82 µM [falling, full curve] | -23.9 |
| CC1CC(C)CN(CC(O)COCc2ccccc2F)C1 (centres undefined) |  |  | 11.7 |
| Cc1cc(S(=O)(=O)Nc2ccc3ccccc3c2)c(C)s1 | 18.4 µM [falling, single point] | 23.1 µM [falling, single point] | -89 |
| C/C(CC(=O)NCC(C)C)=N\NC(=O)COc1cc(C)c(Br)cc1Br |  | 0.58 µM [rising, partial curve, poor fit] | 1.95 |
| COC(=O)c1sc2nc(-c3ccccc3)nc(N3CCN(C)CC3)c2c1C |  | 16.4 µM [falling, single point] | -9.51 |
| O=C(O)CCSc1nc(C(F)(F)F)cc(=O)n1-c1ccccc1 | 3.26 µM [falling, full curve, poor fit] | 2.31 µM [falling, full curve] | -27.7 |
| CSc1ccc(NC(=O)Nc2cccn(Cc3ccccc3F)c2=O)cc1 |  | 29.1 µM [rising, single point] | 20 |
| COc1ccc(C2(CCN=Cc3ccc(N(C)C)cc3)CCOC(C)(C)C2)cc1 (centres undefined) |  |  | 15.1 |
| O=C(COC(=O)C1=COCCO1)Nc1c(F)cccc1F |  |  | -15.5 |
| COc1cccc(N(CC(=O)NCCSc2ccccc2)S(C)(=O)=O)c1 | 0.092 µM [falling, full curve] | 23.1 µM [falling, single point] | -19.2 |
| N#C/C(=N\O)c1nc2ccccc2s1 |  |  | 13.8 |
| COCCn1c(N)c(N(Cc2ccccc2)C(=O)COc2ccccc2F)c(=O)[nH]c1=O | 0.731 µM [falling, full curve, poor fit] | 0.651 µM [rising, full curve, poor fit] | -1.38 |
| Cc1ccc(/C=N/NC(=O)CN(Cc2ccccc2)S(=O)(=O)c2ccc3c(c2)OCCO3)cc1 | 0.461 µM [rising, partial curve, poor fit] | 0.731 µM [rising, single point] | 32.6 |
| CC1=NCCN1S(=O)(=O)c1cc([N+](=O)[O-])ccc1Cl |  | 0.461 µM [falling, full curve, poor fit] | -6.05 |
| CC(C)c1ccc(/C=C(\NC(=O)c2ccccc2)C(=O)NCCN2CCOCC2)cc1 |  | 0.231 µM [rising, full curve] | 6.16 |
| COc1cc(SC)ccc1C(=O)N1CCN(Cc2ccc3c(c2)OCO3)CC1 |  | 29.1 µM [rising, single point] | -0.647 |
| O=C(Nn1c(SCc2ccccc2F)nc2ccsc2c1=O)c1ccccc1 | 29.1 µM [falling, single point] |  | -45.9 |
| CC1=NNC(=O)/C1=C\c1cn(-c2ccccc2)nc1-c1ccc(Cl)cc1 | 25.9 µM [falling, partial curve] | 10.3 µM [falling, partial curve] | -73.1 |
| CC(C)(C)NC(=O)c1cc(F)c(F)cc1Cl |  | 29.1 µM [falling, single point] | -0.509 |
| O=C(Nc1cc(Br)ccc1O)c1cc(-c2cccs2)on1 |  | 0.00517 µM [rising, full curve, poor fit] | 26.9 |

| Compound | AC50 [1] | AC50 [2] | cell number change [%] |
| --- | --- | --- | --- |
| Cc1cccc(NC(=O)c2cc3ccccc3nc2C)c1 | 14.6 µM [rising, partial curve] |  | 51.1 |
| N=c1ccn(Cc2ccccc2Cl)cc1 | 32.6 µM [falling, single point] |  | -51.5 |
| N#C/C(=C\c1ccco1)Sc1nc2ccccc2s1 |  |  | -3.59 |
| O=C1COc2ccc(C(=O)COC(=O)Cc3ccccc3F)cc2N1 | 0.259 µM [falling, full curve, poor fit] | 0.146 µM [falling, full curve, poor fit] | 7.92 |
| CN(Cc1nc2ccccc2c(=O)[nH]1)Cc1nc2ccsc2c(=O)[nH]1 |  | 4.11 µM [rising, single point] | 16.9 |
| Cc1cc(NC(=O)CSc2n[nH]c(N)n2)no1 |  |  | 7.79 |
| CCc1ccccc1Nc1cc(C(=O)NCc2ccccn2)c2ccccc2n1 | 0.00461 µM [rising, full curve, poor fit] |  | -5.24 |
| Cc1ccc(CN2CN(S(=O)(=O)c3cccs3)c3nc4ccccc4nc32)cc1 |  | 0.184 µM [falling, full curve] | -17.6 |
| CCN1CCN(CC(=O)Nc2c(OC)cccc2OC)CC1 |  | 29.1 µM [falling, single point] | -14.6 |
| O=C(O)c1ccccc1C(=O)N1N=C2/C(=C/c3cccc([N+](=O)[O-])c3)CCCC2C1c1cccc([N+](=O)[O-])c1 (centres undefined) |  | 32.6 µM [rising, single point] | 28.7 |
| CC(C)Oc1cccc(C(=O)C2CCCN(C(=O)c3noc4c3CCCC4)C2)c1 (centres undefined) | 25.9 µM [falling, partial curve] | 25.9 µM [falling, partial curve] | -46 |
| CCOc1ccc(N(CC(=O)NCC(C)C)S(C)(=O)=O)cc1 |  |  | -14.3 |
| CCOc1cc(/C=N/NC(=O)C(=O)NCc2ccc3c(c2)OCO3)ccc1OCC(=O)N1CCOCC1 |  | 7.31 µM [rising, partial curve, poor fit] | -1.22 |
| O=C(OCC(=O)c1cccs1)c1cccc(C(=O)OCC(=O)c2cccs2)n1 | 29.1 µM [rising, single point] |  | 41.7 |
| Cc1ccc(NC(=O)CN(C)CC(=O)Nc2ccc(N3CCOCC3)cc2)cc1F |  | 0.517 µM [falling, partial curve, poor fit] | 3.08 |
| CCOC(=O)N1CCN(C(=O)CSc2ncnc3sccc23)CC1 | 6.51 µM [rising, single point] |  |  |
| Cc1cc(N2CCOCC2)n2nc(C)c(-c3ccccc3)c2n1 |  |  | -7.97 |
| C[C@]12CCC[C@H](O1)[C@H]([C@@H](O)c1ccccc1)O2 | 4.11 µM [falling, single point] | 4.11 µM [falling, single point] | 6.88 |
| CCc1ccc([C@@H]2CC=C(C(=O)O)CN2S(=O)(=O)c2ccc(C)cc2)cc1 | 14.6 µM [falling, single point] |  | -30.8 |
| Cc1[nH]n(C(N)=S)c(=O)c1N=Nc1cc(C(F)(F)F)ccc1Cl |  |  | -0.185 |
| CCCCCCC1CC(CSC(=N)N)OC1=O (centres undefined) |  |  | 11.2 |

| Compound | AC50 [1] | AC50 [2] | cell number change [%] |
| --- | --- | --- | --- |
| Cc1ccccc1NC(=O)c1cc(C(=O)c2cc(Cl)ccc2O)cn(-c2ccccc2C)c1=O | 29.1 µM [falling, partial curve] | 3.26 µM [rising, single point] | -233 |
| O=C(Nc1nnc(-c2ccccc2)o1)C1CCCN1S(=O)(=O)c1cccs1 (centres undefined) |  |  | 0.803 |
| CC(C)c1c(O)nc(SCCOc2ccc(Cl)cc2)[nH]c1=O |  | 6.51 µM [rising, partial curve] | 9.97 |
| CCOC(=O)Cc1[nH]nc2c1C(c1cc(OC)ccc1OC)C(C#N)=C(N)O2 (centres undefined) |  |  | -8.84 |
| Fc1ccccc1COc1ccc(C(=S)N2CCCC2)cc1 |  | 18.4 µM [falling, single point] | -10.1 |
| CCN(CC(=O)Nc1cccc(OC)c1)CC(=O)Nc1ccc(C)cc1Cl |  | 0.184 µM [rising, full curve, poor fit] | 16.9 |
| O=C(NS(=O)(=O)Nc1ccc(Br)cn1)c1c[nH]c2ccccc12 |  |  | 16.1 |
| CC(=O)c1cc2c(cc1NC(=O)CSc1nnc(C)s1)OCO2 |  | 0.116 µM [rising, full curve, poor fit] | -21.4 |
| CCOC(=O)CCCNC(=O)c1cncc(O)c1 |  |  | -10.2 |
| CC1CCC(NC(=O)CNC(=O)Cc2cccc3ccccc23)CC1 (centres undefined) |  | 6.51 µM [falling, single point] | 17.6 |
| Cc1ccc(C)c(NC(=O)CSc2nc3nc(-c4cccs4)cc(C(F)(F)F)c3c(=O)[nH]2)c1 |  | 2.06 µM [rising, partial curve, poor fit] | 4.25 |
| COc1ccc(Cc2nc(-c3ccc(Br)o3)no2)cc1OC |  | 32.6 µM [falling, single point] | -11.5 |
| COc1ccc(C2C(C(=O)c3sc(C)nc3C)=C(O)C(=O)N2CCCn2ccnc2)cc1OC (centres undefined) |  | 1.16 µM [falling, single point] |  |
| Cc1ccc2c(CN3C(=O)NC4(CCCCC4)C3=O)cc(=O)oc2c1C |  |  | -4.39 |
| CCOC(=O)NC1(C(F)(F)F)N=C(c2ccccc2)NC1=O (centres undefined) |  | 25.9 µM [falling, single point] | -6.98 |
| O=C1CC(=O)C(n2cncn2)C(c2c(F)cccc2Cl)C1 (centres undefined) | 16.4 µM [rising, single point] |  | 60.1 |
| O=C1CCNc2cc3ccccc3cc21 | 4.61 µM [falling, full curve, poor fit] | 1.16 µM [falling, partial curve] | -41.9 |
| C(=N\c1nc2ccccc2n1CCN1CCOCC1)/c1cccs1 |  | 25.9 µM [rising, single point] | 11.5 |
| O=C(CSc1n[nH]c(-c2ccco2)n1)Nc1ccc(F)cc1 |  | 6.51 µM [falling, single point] | 16.8 |
| CN1CCN(S(=O)(=O)c2ccc(NCc3ccc4c(c3)OCO4)nc2)CC1 |  | 29.1 µM [rising, single point] |  |
| COc1nc(/C=C/N(C)C)c([N+](=O)[O-])c(OC)n1 |  | 0.00461 µM [rising, full curve, poor fit] | 4.34 |

Gathered by group, the entries above with a furan ring, fused or not (3)

| Compound | AC50 [1] | AC50 [2] | cell number change [%] |
| --- | --- | --- | --- |
| N#C/C(=C\c1ccco1)Sc1nc2ccccc2s1 |  |  | -3.59 |
| COc1ccc(Cc2nc(-c3ccc(Br)o3)no2)cc1OC |  | 32.6 µM [falling, single point] | -11.5 |
| O=C(CSc1n[nH]c(-c2ccco2)n1)Nc1ccc(F)cc1 |  | 6.51 µM [falling, single point] | 16.8 |
